In PubChem BioAssay AID2685 (National Center for Advancing Translational Sciences (NCATS), 2010):
This is one part of the list. Shown are side measurements of this screen, not its main read-out; they come without a call. Compounds called inactive in the main read-out are mostly missing here. Words in brackets tell the shape of the fitted curve; partial curves, single points and poor fits give uncertain potencies.

Assay: qHTS Assay for Lipid Storage Modulators in Drosophila S3 Cells;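 as to cell number change: cells counted by Cell Tracker Red CMTPX staining in the red channel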
Settings: BODIPY lipid droplet fluorescence, 18-24 h; for cell number change: measured here: cell count max response, cells fed with added oleic acid
Procedure, shortened: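 Drosophila S3 cells got compounds at several concentrations plus oleic acid (400 uM solution). Laser-scanning cytometry with 488 nm excitation read lipid droplets at 500-530 nm and cells at 575-640 nm. Percent activity was relative to 20 uM Triacsin C.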

[1] = measured here: lipid fluorescence (Fed channel) AC50, cells fed with added oleic acid
[2] = measured here: cell number channel AC50, cells fed with added oleic acid

| Structure (SMILES) | cell number change [%] | AC50 [1] | AC50 [2] |
| --- | --- | --- | --- |
| CCOC(=O)c1cn(CC)c2ccc(S(=O)(=O)N3CCC(C)CC3)cc2c1=O | 8.1 | 5.8 µM [rising, full curve, poor fit] | – |
| CC(=O)N1C=CN(C(C)=O)C(c2cn(C)c3ccccc23)C1c1cn(C)c2ccccc12 (centres undefined) | -11.7 | – | – |
| COc1cccc(NC(=O)COC(=O)CCC2CCCC2)c1 | 7.09 | 16.4 µM [rising, partial curve, poor fit] | – |
| CSCCC(NC(=O)c1ccco1)C(=O)OC(C)C(=O)NC(=O)NC1CCCCC1 (centres undefined) | – | 0.103 µM [falling, full curve, poor fit] | – |
| Cc1ccc(C)c(OCCOCCN2CCOCC2)c1 | – | 20.6 µM [falling, partial curve] | – |
| COC(=O)C1=C(C)N(CC(C)C)C(=O)C1 | 6.83 | 29.1 µM [falling, single point] | – |
| COc1cccc(NCc2cc(=O)oc3cc(-c4ccccc4)c(O)cc23)c1 | -31.1 | 32.6 µM [falling, single point] | 29.1 µM [falling, single point] |
| O=C(O)/C(=C\c1ccc(Cl)c([N+](=O)[O-])c1)c1ccc(S(=O)(=O)N2CCCCC2)s1 | – | 29.1 µM [falling, single point] | – |
| CC1(C)OC(=O)C2(Cc3ccccc3N3CCCCC32)C(=O)O1 (centres undefined) | -27.4 | 1.03 µM [falling, full curve] | 0.461 µM [falling, full curve, poor fit] |
| NC(=O)C1(NC(=O)[C@@H]2CC3(CC(c4cccc(NC(=O)[C@@H]5CCC(=O)N5)c4)=NO3)CN2C(=O)c2ccccc2)CC1 (some centres undefined) | -3.83 | 29.1 µM [rising, single point] | – |
| CCOC(=O)N1CCN(C(=O)c2sc3nc(-c4ccc(F)cc4)cn3c2C)CC1 | 82.6 | 0.82 µM [rising, partial curve, poor fit] | 7.31 µM [rising, partial curve, poor fit] |
| CC(C)(C)n1ncc2c(=O)n(Cc3c(Cl)cccc3Br)cnc21 | -43.9 | 9.2 µM [falling, single point] | 32.6 µM [falling, single point] |
| Cc1cccc(NC(=O)CN2CCN(C(=O)c3oc4c(Cl)cccc4c3C)CC2)c1C | 6.51 | 1.3 µM [rising, full curve] | 0.00517 µM [rising, full curve, poor fit] |
| O=[N+]([O-])c1ccc(C[n+]2cccc(O)c2)cc1 | 18.1 | 0.651 µM [rising, full curve, poor fit] | 0.461 µM [rising, full curve, poor fit] |
| O=C(Nc1ccc(OC(F)(F)F)cc1)C1CC(=O)N(Cc2ccco2)C1 (centres undefined) | -13.4 | 0.0058 µM [falling, full curve, poor fit] | 0.00517 µM [falling, full curve, poor fit] |
| CCOc1ccccc1/C=C/C(=O)c1ccc(Cl)cc1 | -1.81 | 4.11 µM [falling, single point] | – |
| O=C(/C=C/c1ccco1)Oc1cc(Br)cc(/C=N/NC(=O)c2ccccc2O)c1 | -15.9 | 16.4 µM [falling, single point] | – |
| Nc1nc(-c2ccc3c(c2)CCCC3)cs1 | -50.4 | – | 18.4 µM [falling, partial curve] |
| O=C1CCc2cc(S(=O)(=O)N3CCN(c4ccccc4)CC3)cc3c2N1CCC3 | 9 | 3.66 µM [rising, single point] | – |
| O=C(NC(=O)c1cccc(OC(F)(F)C(F)F)c1)OC1CCS(=O)(=O)C1 (centres undefined) | – | 0.58 µM [falling, single point] | 0.58 µM [falling, single point] |
| O=C(Nc1cccc(S(=O)(=O)NC2=NCCC2)c1)c1ccccc1OC(F)F | – | 29.1 µM [rising, single point] | – |
| O=C(O)c1ccc2nc(-c3ccco3)c(-c3ccco3)nc2c1 | 11.5 | – | 0.00461 µM [rising, full curve, poor fit] |
| CC(C)(CN1CCN(c2ccccc2)CC1)NS(=O)(=O)c1ccccc1 | -21.6 | – | – |
| COC(=O)c1ccc(-c2nn(C)c(=O)c3ccccc23)cc1 | – | 6.51 µM [rising, single point] | – |
| CCC(C)C(NS(=O)(=O)c1ccc(C)cc1)C(=O)O (centres undefined) | 36.3 | 2.31 µM [rising, full curve, poor fit] | 2.31 µM [rising, full curve] |
| CNC(=S)NNC(=O)c1sccc1OCc1ccc(C)cc1 | 150 | – | – |
| COc1ccc(C(=O)C2CCCN(C(=O)c3cc(C4CC4)[nH]n3)C2)c(C)c1 (centres undefined) | -10.1 | – | 6.51 µM [falling, single point] |

Single values from the list:
AC50 [2] with CCOC(=O)N1CCN(C(=O)c2sc3nc(-c4ccc(F)cc4)cn3c2C)CC1 is entered as 7.31 µM [rising, partial curve, poor fit]
AC50 [1] with O=[N+]([O-])c1ccc(C[n+]2cccc(O)c2)cc1 is entered as 0.651 µM [rising, full curve, poor fit]
